Values quoted from earlier work in publication PMC10975434, “Cannabinoid-Induced Inhibition of Morphine Glucuronidation and the Potential for In Vivo Drug–Drug Interactions” (Pharmaceutics, 2024).

Tested on: UGT2B7
Settings: read-out: KM for UGT2B7 against morphine; cited from earlier work

**Q.** For `CN1CC[C@]23c4c5ccc(O)c4O[C@H]2[C@@H](O)C=C[C@H]3[C@H]1C5` [morphine, Morphine], which Km is on record?
**A.** Its Km is 275 µM.
